Legend:
[1] = Yellowness Index (YI) of cured coating, ASTM E313
[2] = Through-cure measurement in black offset ink; conditions: 4 wt% PI-2 + 1 wt% photosensitizer
[3] = photoinitiator alone, 4 wt%, no photosensitizer, Lamp 1: UV Hg lamp 120 W/cm
[4] = photoinitiator alone, 4 wt%, no photosensitizer, Lamp 2: UV LED 395 nm, 16 W/cm^2
[5] = photoinitiator alone, 4 wt%, no photosensitizer, Lamp 3: UV LED 365 nm, 16 W/cm^2
[6] = photoinitiator alone, 5 wt%, no photosensitizer, Lamp 1: UV Hg lamp 120 W/cm
[7] = photoinitiator alone, 5 wt%, no photosensitizer, Lamp 2: UV LED 395 nm, 16 W/cm^2
[8] = photoinitiator alone, 5 wt%, no photosensitizer, Lamp 3: UV LED 365 nm, 16 W/cm^2
[9] = 4 wt% PI-1 + 1 wt% photosensitizer, Lamp 1: UV Hg lamp 120 W/cm, 24 hours after crosslinking
[10] = 4 wt% PI-1 + 1 wt% photosensitizer, Lamp 2: UV LED 395 nm, 16 W/cm^2, 24 hours after crosslinking
[11] = 4 wt% PI-1 + 1 wt% photosensitizer, Lamp 3: UV LED 365 nm, 16 W/cm^2, 24 hours after crosslinking
[12] = 4 wt% PI-2 + 1 wt% photosensitizer, Lamp 1: UV Hg lamp 120 W/cm, 24 hours after crosslinking
[13] = 4 wt% PI-2 + 1 wt% photosensitizer, Lamp 2: UV LED 395 nm, 16 W/cm^2, 24 hours after crosslinking
[14] = 4 wt% PI-2 + 1 wt% photosensitizer, Lamp 3: UV LED 365 nm, 16 W/cm^2, 24 hours after crosslinking

Structure (SMILES)	yellowness index [1, 3]	yellowness index [1, 5]	yellowness index [1, 6]	yellowness index [1, 7]	yellowness index [1, 8]	yellowness index [1, 9]	yellowness index [1, 10]	yellowness index [1, 11]	yellowness index [1, 12]	yellowness index [1, 13]	yellowness index [1, 14]	further results
Cc1cc(C)c(C(=O)P(=O)(C(=O)c2c(C)cc(C)cc2C)c2ccccc2)c(C)c1 [PI-1, bis(2,4,6-trimethylbenzoyl) phenylphosphine oxide, reference compound]	2.84	2.04	3.64	2.68	2.84							yellowness index [1, 4]: 1.63
CCCCCCCCP(=O)(C(=O)c1c(C)cc(C)cc1C)C(=O)c1c(C)cc(C)cc1C [PI-2, bis(2,4,6-trimethylbenzoyl) octylphosphine oxide, reference compound]	2.20	0.60	3.01	1.22	1.06							yellowness index [1, 4]: 0.59
Cc1cc(C)c(C(=O)P(=O)(c2ccccc2)c2ccccc2)c(C)c1 [PI-3, 2,4,6-trimethylbenzoyl-diphenyl phosphine oxide, reference compound]	0.67	0.93	0.82	0.62	1.02							yellowness index [1, 4]: 0.92
CCOP(=O)(C(=O)c1c(C)cc(C)cc1C)c1ccccc1 (centres unmarked) [PI-4, ethyl(2,4,6-trimethylbenzoyl)-phenyl phosphinate, reference compound]	0.30	0.85	0.57	0.54	0.74							
COc1cccc(OC)c1C(=O)P(=O)(CC(C)CC(C)(C)C)C(=O)c1c(OC)cccc1OC (centres unmarked) [PI-5, bis(2,6-dimethoxybenzoyl)-2,4,-trimethylpentylphsophine oxide, reference compound]	2.63	2.37	2.93	2.52	2.33							yellowness index [1, 4]: 2.19
CCSc1ccc2cc(-c3ccccc3)c(=O)oc2c1 [S1]						2.82	1.74	1.64	2.82	0.73	0.57	maximum through cure speed ([2]; Lamp 1: UV Hg lamp 120 W/cm): 30 m/min; maximum through cure speed ([2]; Lamp 2: UV LED 395 nm, 16 W/cm^2): 100 m/min; maximum through cure speed ([2]; Lamp 3: UV LED 365 nm, 16 W/cm^2): 95 m/min; yellowness index ([1]; 4 wt% PI-3 + 1 wt% photosensitizer, Lamp 1: UV Hg lamp 120 W/cm, 24 hours after crosslinking): 0.45; yellowness index ([1]; 4 wt% PI-3 + 1 wt% photosensitizer, Lamp 2: UV LED 395 nm, 16 W/cm^2, 24 hours after crosslinking): 0.93; yellowness index ([1]; 4 wt% PI-3 + 1 wt% photosensitizer, Lamp 3: UV LED 365 nm, 16 W/cm^2, 24 hours after crosslinking): 1.00; yellowness index ([1]; 4 wt% PI-4 + 1 wt% photosensitizer, Lamp 1: UV Hg lamp 120 W/cm, 24 hours after crosslinking): 0.59; yellowness index ([1]; 4 wt% PI-4 + 1 wt% photosensitizer, Lamp 2: UV LED 395 nm, 16 W/cm^2, 24 hours after crosslinking): 1.10; yellowness index ([1]; 4 wt% PI-4 + 1 wt% photosensitizer, Lamp 3: UV LED 365 nm, 16 W/cm^2, 24 hours after crosslinking): 0.78; yellowness index ([1]; 4 wt% PI-5 + 1 wt% photosensitizer, Lamp 1: UV Hg lamp 120 W/cm, 24 hours after crosslinking): 2.42; yellowness index ([1]; 4 wt% PI-5 + 1 wt% photosensitizer, Lamp 2: UV LED 395 nm, 16 W/cm^2, 24 hours after crosslinking): 1.62; yellowness index ([1]; 4 wt% PI-5 + 1 wt% photosensitizer, Lamp 3: UV LED 365 nm, 16 W/cm^2, 24 hours after crosslinking): 1.02
CCCCC(CC)CSc1ccc2cc(-c3ccccc3)c(=O)oc2c1 (centres unmarked) [S2]						2.45	1.77	1.83	2.20	1.40	1.35	
CCSc1ccc(-c2cc3ccc(SCC)cc3oc2=O)cc1 [S3]						2.28	1.82	1.81	2.34	1.58	1.65	
CN(C)CCSc1ccc2cc(-c3ccccc3)c(=O)oc2c1 [S4]						3.77	2.00	2.22	2.46	1.24	1.28	
Cc1cc(=O)oc2cc(SCCO)ccc12 [S5]						2.70	1.76	1.85	2.30	0.65	1.46	
Cc1c(-c2ccccc2)c(=O)oc2cc(SCCO)ccc12 [S6]						2.57	1.31	1.33	2.13	1.45	1.17	
CSc1ccc2cc(-c3nc4ccccc4n3C)c(=O)oc2c1 [S7]						12.91	10.75	10.37	7.35	5.91	6.31	
CCSc1ccc2ccc(=O)oc2c1 [S9]						2.17	1.20	1.67	2.84	0.90	1.44	
CCOC(=O)c1cc2ccc(SCC)cc2oc1=O [S10]						2.59	2.27	2.24	2.41	0.61	0.94	
CCSc1ccc2cc(-c3ccncc3)c(=O)oc2c1 [S11]						24.19	21.29	21.04				
CCSc1cc(SCC)c2cc(-c3ccccc3)c(=O)oc2c1 [S12]						3.67	2.34	2.88	3.99	1.91	1.96	

— EP4579344A1, “THIOALKYLCOUMARIN PHOTOSENSITIZERS FOR PHOTOPOLYMERIZATION” (IGM Group B.V., priority 2023, dated 2025)
